Measurements published in publication PMC12386351, “Monoterpene Indole Alkaloids with Antimicrobial Activity Against Helicobacter pylori” (International Journal of Molecular Sciences, 2025).

What follows are compounds tested on VERO cells (assay: MTT cytotoxicity assay on VERO cells). Conditions: CC50 VERO cells / MIC H. pylori; MIC used instead of IC50.
Format: cell-based
Procedure: The cytotoxicity of the compounds showing antibacterial activity was evaluated in VERO cell cultures (FTVE, Vircell, S.L., Granada, Spain) using the standard MTT colorimetric assay. Briefly, sub confluent cell cultures were exposed for 48 h, to 2-fold dilutions of each assayed compound, ranging from 80 to 10 µM, in 100 μL CO2-independent medium supplemented with 5% FBS and […] gentamicin (Gibco^TM, Grand Island, NY, USA) (CO2-ind-FBS5). In each assay, cells exposed to equivalent concentrations of DMSO as solvent and untreated cells were kept as controls; untreated cells were considered the baseline for 100% viability.
After 48-h incubation at 37 °C, the culture medium was replaced by fresh CO2-ind-FBS5 medium supplemented with 0.5 mg/mL MTT (Thermo Fisher Scientific, Waltham, MA, USA). Upon a 3-h incubation at 37 °C, the medium was carefully discarded, and the purple formazan crystals formed were dissolved in DMSO (100 μL/well) during a 15-min incubation with agitation at room temperature, followed by absorbance reading at 570 nm, with reference wavelength at 630 nm (BioTek Epoch2, Agilent, Winooski, VT, USA). Data analysis and visualization were performed using Excel (v.2408) and RStudio (v. 2024.04.2). When possible, the half maximal cytotoxic concentration (CC50) values were determined for each compound by fitting a dose–response three- or four-parameter log-logistic function to the triplicate experimental points using RStudio (v.2024.04.2).
The selectivity index (SI) is the ratio of the cytotoxic concentration for 50% of the cells (CC50) to the inhibitory concentration for 50% of the bacteria (IC50). Considering that IC50 values were not calculated, but are expectably lower than the MIC value, the SI was estimated by dividing the CC50 by the MIC. Therefore, this value is necessarily lower than the SI because the MIC, rather than the bacterial half-maximal inhibitory concentration (IC50), was used in the calculation. This approach allows for an estimation of the therapeutic potential of the compound by providing an indication of its selectivity for targeting bacterial cells over host cells, even though the MIC is used instead of the bacterial IC50.
To compare biofilm formation between groups (negative control, H. pylori J99, and compound treatments), one-way analysis of variance (ANOVA) was performed, followed by Tukey’s post-hoc test for multiple comparisons. Data analysis was conducted using Python 3.13.5. Similarly, for the cytotoxicity assay in VERO cells, ANOVA and Tukey’s post-hoc test were also used to compare groups at each tested concentration (ranging from 80 to 10 µM), with DMSO-treated and untreated cells as reference groups.

Question: How did the “"SI" (CC50/MIC)” value turn out when CCC1CN(C)C2Cc3c([nH]c4ccccc34)C(=NN=Cc3c[nH]c4cc(Br)ccc34)CC1C2C(=O)OC (centres unmarked) [Compound 6, Dregamine(6′bromo-3′indolylmethylene)hydrazone] was run?
Answer: Its value is over 8.0.

Question: Which “"SI" (CC50/MIC)” value does the source give for CCC1CN(C)C2Cc3c([nH]c4ccccc34)C(=NN=Cc3c[nH]c4ccccc34)CC1C2C(=O)OC (centres unmarked) [Compound 4, Dregamine(indolylmethylene)hydrazone] here?
Answer: The value was over 4.7.

Question: CCC1CN(C)C2Cc3c([nH]c4ccccc34)C(c3c(OC)ccc4c5c([nH]c34)C3(C(=O)OC)CC4CC(CC)C3N(CC5)C4CC(C)=O)CC1C2C(=O)OC (centres unmarked) [Compound 7, Tabernaelegantinine A] was tested. Which “"SI" (CC50/MIC)” value did it give?
Answer: Its value is over 4.0.

Question: CCC1CN(C)C2Cc3c([nH]c4ccccc34)C(=NN=Cc3ccccc3O)CC1C2C(=O)OC (centres unmarked) [Compound 5, Dregamine(2′-hydroxybenzylidene)hydrazone] was tested. Which “"SI" (CC50/MIC)” value did it give?
Answer: Its value is over 2.8.

Question: For CCC1CN(C)C2Cc3c([nH]c4ccccc34)C(=NN=CC=Cc3ccccc3)CC1C2C(=O)OC (centres unmarked) [Compound 3, Dregamine(phenylallylidene)hydrazone], which “"SI" (CC50/MIC)” value is on record?
Answer: Its value is over 2.2.
